In publication PMC3002282:
These are yes or no findings as the source states them, for the method shown. Binding seen in cells or lysates may run through a third protein. Some entries that bind do so weakly or less than the wild type. Tags and fused reporters may be left off the sequences shown.

Sequences of proteins named here, by UniProt entry; tags and fusion partners are left off.
UniProt P19538: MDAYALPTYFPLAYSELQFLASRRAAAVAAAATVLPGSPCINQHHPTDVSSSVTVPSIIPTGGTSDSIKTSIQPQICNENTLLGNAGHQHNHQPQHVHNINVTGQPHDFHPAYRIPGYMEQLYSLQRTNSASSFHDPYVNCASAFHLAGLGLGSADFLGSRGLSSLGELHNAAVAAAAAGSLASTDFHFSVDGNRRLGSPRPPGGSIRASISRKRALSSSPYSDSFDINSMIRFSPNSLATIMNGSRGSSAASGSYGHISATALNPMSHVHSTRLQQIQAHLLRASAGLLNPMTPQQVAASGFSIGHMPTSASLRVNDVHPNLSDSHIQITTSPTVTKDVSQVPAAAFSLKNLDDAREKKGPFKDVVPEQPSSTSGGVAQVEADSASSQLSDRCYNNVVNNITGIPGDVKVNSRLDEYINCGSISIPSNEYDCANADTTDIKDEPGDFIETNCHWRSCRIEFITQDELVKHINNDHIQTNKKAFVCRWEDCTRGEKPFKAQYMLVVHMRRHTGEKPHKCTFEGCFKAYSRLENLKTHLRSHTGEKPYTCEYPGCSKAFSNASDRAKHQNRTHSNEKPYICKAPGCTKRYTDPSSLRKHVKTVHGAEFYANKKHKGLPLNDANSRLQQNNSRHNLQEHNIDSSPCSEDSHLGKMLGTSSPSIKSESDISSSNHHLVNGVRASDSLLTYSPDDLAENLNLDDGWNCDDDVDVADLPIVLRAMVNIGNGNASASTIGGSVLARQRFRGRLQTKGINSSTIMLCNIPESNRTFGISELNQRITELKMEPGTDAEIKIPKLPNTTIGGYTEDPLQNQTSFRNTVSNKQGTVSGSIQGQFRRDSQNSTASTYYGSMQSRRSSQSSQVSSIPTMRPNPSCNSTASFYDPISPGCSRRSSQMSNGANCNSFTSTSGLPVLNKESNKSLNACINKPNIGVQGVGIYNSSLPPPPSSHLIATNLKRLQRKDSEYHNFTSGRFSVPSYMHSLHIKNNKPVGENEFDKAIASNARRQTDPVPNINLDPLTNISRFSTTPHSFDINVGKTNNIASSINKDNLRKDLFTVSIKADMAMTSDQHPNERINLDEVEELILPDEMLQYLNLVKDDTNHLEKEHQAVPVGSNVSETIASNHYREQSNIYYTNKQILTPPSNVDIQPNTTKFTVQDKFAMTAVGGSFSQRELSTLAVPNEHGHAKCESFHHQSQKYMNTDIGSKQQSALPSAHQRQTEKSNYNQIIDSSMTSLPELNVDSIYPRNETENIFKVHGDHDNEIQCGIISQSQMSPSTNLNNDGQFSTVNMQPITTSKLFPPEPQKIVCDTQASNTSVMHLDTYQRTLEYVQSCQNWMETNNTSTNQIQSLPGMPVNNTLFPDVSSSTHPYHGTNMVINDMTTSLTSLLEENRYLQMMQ

Target: HA-Ci-155 (Drosophila) (UniProt P19538)
Assay: co-IP; clone-8 cells transfected with Myc-importin α3, HA-Ci-155 and Hh; lysis in 50 mM HEPES pH 7.4, 250 mM NaCl, 0.5% NP-40, 0.2 mM EDTA, diluted to 150 mM NaCl; immunoprecipitation with anti-HA (3F10) or control rat IgG; blot with anti-HA or anti-Myc

B1: Myc-Importin α3 (protein, UniProt Q9V455 1-514)
chain: MTSMEQNRLQNFKNKGKDQDEMRRRRNEVTVELRKNKREETILKRRNVPNLDSNTDEEEQLSSSIDLKKLAKAAADATKPEQQLAAVQAARKLLSSDKNPPINDLIQSDILPILVECLKQHNHTMLQFEAAWALTNIASGTSAQTNEVVAAGAVPLFLQLLNSPAPNVCEQAVWALGNIIGDGPLLRDFVIKHGVVQPLLSFIKPDIPITFLRNVTWVIVNLCRNKDPAPPTATIHEILPALNVLIHHTDTNILVDTVWAISYLTDGGNDQIQMVIESGVVPKLIPLLGNSEVKVQTAALRAVGNIVTGSDEQTQVVLNYDALSYFPGLLSHPKEKIRKEAVWFLSNITAGNQSQVQAVINVGLLPKIIENLSKGEFQTQKEAAWAISNLTISGNREQVFTLIKEGVIPPFCDLLSCQDTQVINVVLDGLNNMLKVADSHVEAVANCIEECEGLAKIERLQSHENVEIYKLAYEIIDQYFTDEGEQTNMAPTSDGAQYNFDPHADRLTMNSFNF
binding: binds
